PubChem BioAssay AID686937 | Drosophila RNAi Screening Center | 2013
The screen tested about 23,000 reagents; this is an unselected part of those that have a named target and a result. 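Reduced-secretion tags in replicate 1 do not always agree with the z-scores; no criterion for assigning the tags was given.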 Not all columns of the deposit are shown. Reagent sequences are not shown. The record does not give: the amount of reagent.

Screen: 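Genes in the fly needed for secretion of protein constitutively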 (primary screen)
Cells: Drosophila S2 cells expressing secreted horseradish peroxidase
Knock-down reagent: long dsRNA against Drosophila genes
Timing: about 5.5 days (5 days dsRNA, then 12 h reporter induction)
Challenge: reporter expression induced after 5 days of dsRNA, read 12 h later; inducer not stated
Read-out: 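Chemiluminescent measurement of peroxidase in the medium 12 h after reporter induction, following 5 days of dsRNA, given as a z-score per plate; higher means more secretion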
Scale: z-score: higher = more reporter secreted into medium

z-score, replicate 1	z-score, replicate 2	z-score, replicate 3	gene	dsRNA
0.46	-0.14		ave (aveugle)	DRSC05502
0.4	0.44		CG31245	DRSC15498
0.1	-0.11		Gr8a (Gustatory receptor 8a)	DRSC18043
-0.11	0.06		Cpr47Ed (Cuticular protein 47Ed)	DRSC07331
0.33	0.6		CG8191	DRSC20091
0.26	0.21		croc (crocodile)	DRSC11884
0.65	0.36		E(spl)mbeta-HLH (Enhancer of split mbeta, helix-loop-helix)	DRSC16697
-0.22	-0.86		Zdhhc8 (Zinc finger DHHC-type containing 8)	DRSC18044
0.53	0.81		Zdhhc8 (Zinc finger DHHC-type containing 8)	DRSC18122
0.28	0.19		CG11585	DRSC19410
0.14	0.29		CG9951	DRSC11105
-1.14	-1.43		Polr2M (RNA polymerase II subunit M)	DRSC15513
0.66	0.33	-0.04	CG17816	DRSC15277
0.29	0.22		Oli (Olig family)	DRSC02866
0.37	0.25		wtrw (water witch)	DRSC14241
0.66	0.2	-0.53	wtrw (water witch)	DRSC15278

Next part; the last 3 above are carried over.
z-score, replicate 1	z-score, replicate 2	z-score, replicate 3	gene	dsRNA
0.29	0.22		Oli (Olig family)	DRSC02866
0.37	0.25		wtrw (water witch)	DRSC14241
0.66	0.2	-0.53	wtrw (water witch)	DRSC15278
-0.94	-1.35		Pp2B-14D (Protein phosphatase 2B at 14D)	DRSC20270
0.24	0.16		fln (flightin)	DRSC11346
0.73	0.63		CG33159	DRSC08199
0.31	0.08		CG34304 (retired record)	DRSC12810
0.13	0.24		CG17508	DRSC07771
-0.01	0.46		Acsf3 (Acyl-CoA synthetase family member 3)	DRSC18146
0.39	0.2		CG10725	DRSC09788
0.4	0.15		Mtp (Microsomal triacylglycerol transfer protein)	DRSC03216
0.58	0.16		CG4324	DRSC04462
0.15	0.44		Tmx3 (Thioredoxin-related transmembrane protein 3)	DRSC10471
-0.13	0.52	0.07	Chchd2 (Coiled-coil-helix-coiled-coil-helix domain containing 2)	DRSC19931
0.08	0.14		ro (rough)	DRSC17046
0.58	0.38		udt (undicht)	DRSC14214
-1.78	-1.08		Spase25 (Spase 25-subunit)	DRSC19776
0.21	0.13		CG13049	DRSC09930
-0.3	0.11		CG31464	DRSC14345
-7.28	0.27		CG2964	DRSC00554
